Results are given in words; binding and its absence hold for the method and conditions named. For part of these data: Binding seen in cells or lysates may run through a third protein. Some entries that bind do so weakly or less than the wild type. For part of these data: Where a sequence is shown, tags or fusion partners need not be part of it.
Key:
[1] = target: T1, C-terminus of human CDKL5 (amino acids 299-1030) fused to the Gal4 DNA-binding domain (human) (UniProt O76039); experiment: two-hybrid; Gal4 DNA-binding domain bait (pB35) screened against a random-primed human adult brain cDNA library in pP6 by mating of Y187 and CG1945; His+ colonies selected on medium lacking tryptophan, leucine, methionine and histidine
T1 sequence: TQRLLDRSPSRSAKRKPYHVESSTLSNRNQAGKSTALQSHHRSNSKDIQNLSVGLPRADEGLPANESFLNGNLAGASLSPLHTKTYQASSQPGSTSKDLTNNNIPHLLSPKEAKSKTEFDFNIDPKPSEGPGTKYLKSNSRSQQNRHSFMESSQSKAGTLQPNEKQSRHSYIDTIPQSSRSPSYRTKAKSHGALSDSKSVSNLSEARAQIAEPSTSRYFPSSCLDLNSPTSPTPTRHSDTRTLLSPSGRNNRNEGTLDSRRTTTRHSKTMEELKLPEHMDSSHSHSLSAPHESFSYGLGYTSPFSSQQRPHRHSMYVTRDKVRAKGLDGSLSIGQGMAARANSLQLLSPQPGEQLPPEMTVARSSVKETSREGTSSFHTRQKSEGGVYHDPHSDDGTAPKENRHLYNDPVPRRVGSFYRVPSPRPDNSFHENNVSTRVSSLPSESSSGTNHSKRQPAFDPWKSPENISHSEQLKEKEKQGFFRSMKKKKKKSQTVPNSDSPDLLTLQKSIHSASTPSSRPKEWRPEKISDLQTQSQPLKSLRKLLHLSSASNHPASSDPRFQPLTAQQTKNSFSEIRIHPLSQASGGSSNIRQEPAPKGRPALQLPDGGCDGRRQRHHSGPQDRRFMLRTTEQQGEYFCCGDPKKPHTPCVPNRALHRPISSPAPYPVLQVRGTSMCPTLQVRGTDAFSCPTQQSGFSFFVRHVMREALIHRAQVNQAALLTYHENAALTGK

The chains behind the UniProt entries cited, without tags or fusion partners. Residues count along the entry.
UniProt Q8K2Q9: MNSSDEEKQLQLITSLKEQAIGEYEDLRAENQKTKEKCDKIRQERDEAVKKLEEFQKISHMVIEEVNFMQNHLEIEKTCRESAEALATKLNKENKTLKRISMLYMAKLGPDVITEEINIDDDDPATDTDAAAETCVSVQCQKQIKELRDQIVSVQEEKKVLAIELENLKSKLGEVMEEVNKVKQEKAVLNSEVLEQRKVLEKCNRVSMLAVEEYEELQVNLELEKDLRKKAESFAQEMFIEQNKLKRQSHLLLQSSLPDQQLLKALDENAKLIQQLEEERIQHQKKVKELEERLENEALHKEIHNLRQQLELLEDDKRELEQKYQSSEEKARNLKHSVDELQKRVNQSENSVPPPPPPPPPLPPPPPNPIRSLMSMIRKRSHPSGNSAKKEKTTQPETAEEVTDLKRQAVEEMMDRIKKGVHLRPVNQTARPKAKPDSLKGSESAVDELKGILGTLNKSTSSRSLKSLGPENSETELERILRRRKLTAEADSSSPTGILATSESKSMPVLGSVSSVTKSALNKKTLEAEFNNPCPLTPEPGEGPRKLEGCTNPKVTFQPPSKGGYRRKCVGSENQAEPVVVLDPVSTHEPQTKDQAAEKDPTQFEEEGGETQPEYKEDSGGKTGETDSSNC
UniProt A0MZ66, residues 53-290: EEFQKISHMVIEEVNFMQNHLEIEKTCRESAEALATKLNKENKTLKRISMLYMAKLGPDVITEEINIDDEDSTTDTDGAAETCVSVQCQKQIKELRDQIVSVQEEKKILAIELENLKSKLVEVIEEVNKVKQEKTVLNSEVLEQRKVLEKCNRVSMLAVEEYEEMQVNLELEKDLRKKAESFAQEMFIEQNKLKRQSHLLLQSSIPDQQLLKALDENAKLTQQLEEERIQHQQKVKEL

[2] = target: T2, endogenous CDKL5 of mouse brain (mouse (endogenous in brain)) (UniProt Q3UTQ8); experiment: co-IP; endogenous CDKL5 precipitated from P7 mouse brain extract (500 ug) with purified anti-CDKL5 overnight at 4 C, protein-G agarose; lysis buffer 50 mM Tris-HCl pH 7.5, 150 mM NaCl, 1% Triton X-100, 0.1% SDS; unrelated IgGs as control; blot for shootin1
T2 sequence: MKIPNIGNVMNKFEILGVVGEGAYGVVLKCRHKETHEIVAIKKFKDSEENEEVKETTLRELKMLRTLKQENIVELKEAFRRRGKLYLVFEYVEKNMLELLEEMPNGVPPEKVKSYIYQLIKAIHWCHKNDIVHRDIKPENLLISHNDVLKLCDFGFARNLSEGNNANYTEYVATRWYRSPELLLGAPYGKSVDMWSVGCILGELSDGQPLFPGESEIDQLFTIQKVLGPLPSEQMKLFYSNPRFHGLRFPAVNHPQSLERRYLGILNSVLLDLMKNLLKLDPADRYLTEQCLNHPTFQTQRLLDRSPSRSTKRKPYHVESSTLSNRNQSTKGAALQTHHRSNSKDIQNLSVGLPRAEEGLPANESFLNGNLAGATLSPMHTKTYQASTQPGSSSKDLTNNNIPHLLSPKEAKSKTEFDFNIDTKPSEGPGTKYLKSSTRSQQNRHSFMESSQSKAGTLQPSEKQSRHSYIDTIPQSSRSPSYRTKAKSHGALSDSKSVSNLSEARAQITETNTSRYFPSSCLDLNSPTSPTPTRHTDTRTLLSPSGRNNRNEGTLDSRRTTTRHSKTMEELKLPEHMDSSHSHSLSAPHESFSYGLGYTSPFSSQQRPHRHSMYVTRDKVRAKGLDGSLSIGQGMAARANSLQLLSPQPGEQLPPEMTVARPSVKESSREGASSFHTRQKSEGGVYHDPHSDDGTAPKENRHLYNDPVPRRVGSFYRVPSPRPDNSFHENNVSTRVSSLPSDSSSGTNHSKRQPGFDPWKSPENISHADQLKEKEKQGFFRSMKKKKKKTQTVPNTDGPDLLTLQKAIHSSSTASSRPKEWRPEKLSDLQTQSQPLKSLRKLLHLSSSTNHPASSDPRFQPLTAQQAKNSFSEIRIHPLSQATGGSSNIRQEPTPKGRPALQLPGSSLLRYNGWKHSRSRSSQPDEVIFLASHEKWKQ

[3] = target: endogenous shootin1 of mouse brain (mouse (endogenous in brain)) (UniProt Q8K2Q9); experiment: co-IP; endogenous shootin1 precipitated from P5 mouse brain lysate (lysis buffer without SDS) with anti-shootin1 (Thermo Scientific), protein-G agarose saturated with 5% BSA; unrelated IgGs as control; blot for CDKL5

shootin1 prey clones from a human adult brain cDNA library (from UniProt A0MZ66-2 53-290) (domain or fragment)
binding [1]: binds

endogenous shootin1 of mouse brain (from UniProt Q8K2Q9 1-631)
binding [2]: binds

B1: endogenous CDKL5 of mouse brain (protein, UniProt Q3UTQ8 1-938)
chain: MKIPNIGNVMNKFEILGVVGEGAYGVVLKCRHKETHEIVAIKKFKDSEENEEVKETTLRELKMLRTLKQENIVELKEAFRRRGKLYLVFEYVEKNMLELLEEMPNGVPPEKVKSYIYQLIKAIHWCHKNDIVHRDIKPENLLISHNDVLKLCDFGFARNLSEGNNANYTEYVATRWYRSPELLLGAPYGKSVDMWSVGCILGELSDGQPLFPGESEIDQLFTIQKVLGPLPSEQMKLFYSNPRFHGLRFPAVNHPQSLERRYLGILNSVLLDLMKNLLKLDPADRYLTEQCLNHPTFQTQRLLDRSPSRSTKRKPYHVESSTLSNRNQSTKGAALQTHHRSNSKDIQNLSVGLPRAEEGLPANESFLNGNLAGATLSPMHTKTYQASTQPGSSSKDLTNNNIPHLLSPKEAKSKTEFDFNIDTKPSEGPGTKYLKSSTRSQQNRHSFMESSQSKAGTLQPSEKQSRHSYIDTIPQSSRSPSYRTKAKSHGALSDSKSVSNLSEARAQITETNTSRYFPSSCLDLNSPTSPTPTRHTDTRTLLSPSGRNNRNEGTLDSRRTTTRHSKTMEELKLPEHMDSSHSHSLSAPHESFSYGLGYTSPFSSQQRPHRHSMYVTRDKVRAKGLDGSLSIGQGMAARANSLQLLSPQPGEQLPPEMTVARPSVKESSREGASSFHTRQKSEGGVYHDPHSDDGTAPKENRHLYNDPVPRRVGSFYRVPSPRPDNSFHENNVSTRVSSLPSDSSSGTNHSKRQPGFDPWKSPENISHADQLKEKEKQGFFRSMKKKKKKTQTVPNTDGPDLLTLQKAIHSSSTASSRPKEWRPEKLSDLQTQSQPLKSLRKLLHLSSSTNHPASSDPRFQPLTAQQAKNSFSEIRIHPLSQATGGSSNIRQEPTPKGRPALQLPGSSLLRYNGWKHSRSRSSQPDEVIFLASHEKWKQ
binding [3]: binds

From paper PMC4746202
